Laboratory results from PubChem BioAssay AID1504 (NMMLSC, 2009).
The other results are listed elsewhere or left out.

What was measured:
Assay in all cases: modulators of RGS–Galpha-o binding, primary screen, biochemical, multiplexed beads, flow cytometry, RGS4/7/8/16/19 (AID 1504);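 further: fluorescently labeled Galpha-o bound to GDP with aluminium fluoride binding biotinylated RGS beads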
[1] = biological target: Regulator of G-protein signaling 16 (Homo sapiens) (UniProt O15492); details: multiplexed bead flow cytometry, measured here: RGS16 interaction, at 10 µM
[2] = biological target: Regulator of G-protein signaling 19 (Homo sapiens) (UniProt P49795); details: multiplexed bead flow cytometry, measured here: RGS19 interaction, at 10 µM
[3] = biological target: Regulator of G-protein signaling 7 (Homo sapiens) (UniProt P49802); details: multiplexed bead flow cytometry, measured here: RGS7 interaction, at 10 µM
[4] = biological target: Regulator of G-protein signaling 8 (Homo sapiens) (UniProt P57771); details: multiplexed bead flow cytometry, measured here: RGS8 interaction, at 10 µM

Row | Compound | RGS16–Galpha-o binding response [1] | RGS19–Galpha-o binding response [2] | RGS7–Galpha-o binding response [3] | RGS8–Galpha-o binding response [4]
1 | c1ccc(-c2nn[nH]n2)c(-c2nn[nH]n2)c1 | -1.45% | 156% | 68.5% | 48.7%
2 | Nc1cccc2c([As](=O)(O)O)cccc12 | 27.8% | 145% | 318% | 49.9%
